The values that follow come from publication doi:10.1101/625400.

Sequences of proteins named here, by UniProt entry; tags and fusion partners are left off.
UniProt P25490, whole entry: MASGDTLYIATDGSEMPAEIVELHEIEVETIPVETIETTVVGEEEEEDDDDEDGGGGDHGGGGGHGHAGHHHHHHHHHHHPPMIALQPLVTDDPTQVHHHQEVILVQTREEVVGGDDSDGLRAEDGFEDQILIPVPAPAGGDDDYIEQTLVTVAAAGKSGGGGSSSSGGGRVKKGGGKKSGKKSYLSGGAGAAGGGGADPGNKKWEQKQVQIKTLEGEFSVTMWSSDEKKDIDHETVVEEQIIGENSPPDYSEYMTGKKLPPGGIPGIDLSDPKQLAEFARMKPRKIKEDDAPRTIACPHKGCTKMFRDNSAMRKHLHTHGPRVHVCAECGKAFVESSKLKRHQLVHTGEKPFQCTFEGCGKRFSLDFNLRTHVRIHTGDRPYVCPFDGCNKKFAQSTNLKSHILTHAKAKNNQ

The target in series [1] is YY1 in UACC2331 melanoma nuclear extract (Homo sapiens (UACC2331 melanoma cells)) (UniProt P25490). Description: EMSA supershift. The settings on record: anti-YY1 diminishes A-specific band, 10 mM Mg2+; protein in an extract. For orientation: Mobility shift assays separate free from complexed probe on a gel.
Series [2] has as its target YY1 in UACC903 melanoma nuclear extract (Homo sapiens (UACC903 melanoma cells)) (UniProt P25490). As to the kind of experiment: pull-down, quantitative mass spectrometry. The settings on record: polydAdT and polydIdC competitor; protein in an extract.

Construct, isoform or probe ends are uncertain for at least one entry. Results from cells or extracts need not show a direct contact.

On to “GTCCGTCCCAACATGGCGGGT (double strand) [rs398206 A allele EMSA probe]”, for which, in series [1], the binding result is “binds”.
Turning to “GTCCGTCCCAACATGGCGGGT (double strand) [rs398206 A allele mass-spec probe]”, the binding result in series [2] is listed as “binds”.
